Data from patent US20190218308A1.
Substitutions are numbered along the chain they refer to. No constants are given. Whether binding was seen depends on the method and setting. Some results given as binding are weak or reduced against the parent protein; the word gives no strength.

Legend:
CD39 mutant 16 (human) = target: T1, CD39 mutant 16 (human) (UniProt P49961); experiment: flow cytometry, Hek-293T cells expressing mutant 16
T1 sequence: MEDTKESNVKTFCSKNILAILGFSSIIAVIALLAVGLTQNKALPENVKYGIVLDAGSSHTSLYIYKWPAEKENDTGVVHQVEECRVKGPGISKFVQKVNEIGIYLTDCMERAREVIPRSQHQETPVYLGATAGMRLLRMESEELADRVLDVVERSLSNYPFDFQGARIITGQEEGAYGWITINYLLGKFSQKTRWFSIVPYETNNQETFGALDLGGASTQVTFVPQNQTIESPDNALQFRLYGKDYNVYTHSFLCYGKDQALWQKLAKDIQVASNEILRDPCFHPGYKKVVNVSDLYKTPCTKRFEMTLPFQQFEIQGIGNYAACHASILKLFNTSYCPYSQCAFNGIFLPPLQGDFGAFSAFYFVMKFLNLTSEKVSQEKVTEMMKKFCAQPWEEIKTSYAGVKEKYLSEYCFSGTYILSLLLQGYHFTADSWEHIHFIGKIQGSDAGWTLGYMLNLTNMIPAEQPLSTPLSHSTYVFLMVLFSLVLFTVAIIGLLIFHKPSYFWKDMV

CD39 mutant 10A (human) = target: T2, CD39 mutant 10A (human) (UniProt P49961); experiment: flow cytometry, Hek-293T cells expressing mutant 10A
T2 sequence: T1 sequence with A323Q, A324Q, A327Q, K331E, Q354A, D356S, E435A, H436Q

CD39 mutant 7 (human) = target: T3, CD39 mutant 7 (human) (UniProt P49961); experiment: flow cytometry, Hek-293T cells expressing mutant 7
T3 sequence: T1 sequence with A273S, N275A, I277S, R279A, A323Q, A324Q, A327Q, K331E

CD39 mutant 2A (human) = target: T4, CD39 mutant 2A (human) (UniProt P49961); experiment: flow cytometry, Hek-293T cells expressing mutant 2A
T4 sequence: T1 sequence with V81S, E82A, R111A, V115A, A323Q, A324Q, A327Q, K331E

CD39 mutant 2B (human) = target: T5, CD39 mutant 2B (human) (UniProt P49961); experiment: flow cytometry, Hek-293T cells expressing mutant 2B
T5 sequence: T1 sequence with E110A, R113T, E114A, A323Q, A324Q, A327Q, K331E

binding (CD39 mutant 16 (human)): binds | binding (CD39 mutant 10A (human)): binds | binding (CD39 mutant 7 (human)): binds | binding (CD39 mutant 2A (human)): binds | binding (CD39 mutant 2B (human)): binds
B1: antibody I-399 (antibody, V domains shown)
VH: PVQLQQPGAEVVMPGASVKLSCKASGYTFTSFWMNWMRQRPGQGLEWIGEIDPSDFYTNSNQRFKGKATLTVDKSSSTAYMQLSSLTSEDSAVYFCARGDFGWYFDVWGTGTSVTVSS
VL: EIVLTQSPTTMTSSPGEKITFTCSASSSINSNYLHWYQQKPGFSPKLLIYRTSNLASGVPTRFSGSGSGTSYSLTIGTMEAEDVATYYCQQGSSLPRTFGGGTKLEIK
